The assay has as its system Escherichia coli BW25113. Put plainly: plate-normalized OD600 growth (mean of duplicates) (OD600 (normalized)); higher = more growth (less inhibition). The note with it: 10 µM. The procedure: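 E. coli BW25113 in LB (100 µl, 96-well, no shaking) was exposed to 10 µM of each compound (here the ChemBridge subset of a ~30,000-member library) and grown at 37°C for 24 h or 15°C for 48 h, in duplicate. Growth was read as OD600 and the duplicate ODs were normalized across screening plates to correct plate-to-plate variation.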

Over roughly 1,600 compounds, “plate-normalized OD600 growth (mean of duplicates)” has its median near 0.31; the lowest 2% begin near 0.23. Some of the results follow.

As for `CCCCOc1ccc(CN2CCN(CCOCCO)CC2)cc1`, the “plate-normalized OD600 growth” value was determined as 0.216 (temperature: 15°C, 48 h) and 0.626 (temperature: 37°C, 24 h).

As to `C#CCn1c(-c2nonc2N)nc2ccccc21`, the “plate-normalized OD600 growth” value (temperature: 15°C, 48 h) is 0.251 and the “plate-normalized OD600 growth” value (temperature: 37°C, 24 h) came to 0.605.

`Cc1ccc(S(=O)(=O)Nc2nnc(C)s2)cc1`: the “plate-normalized OD600 growth” value (temperature: 15°C, 48 h) came out at 0.265 and the “plate-normalized OD600 growth” value (temperature: 37°C, 24 h) stood at 0.624.

Turning to `CCCc1nc(N)c(C#N)c(-c2ccco2)c1CC`, the “plate-normalized OD600 growth” value by setting is: (temperature: 15°C, 48 h) 0.249; (temperature: 37°C, 24 h) 0.606.

Regarding `O=S(=O)(Cc1ccccc1)N1CCN(c2ccccc2)CC1`, the “plate-normalized OD600 growth” value runs as follows: (temperature: 15°C, 48 h) 0.257; (temperature: 37°C, 24 h) 0.626.

`CC(Nc1cc(=O)n(C)c(=O)[nH]1)c1ccccc1` (stereo not given): the “plate-normalized OD600 growth” value (temperature: 15°C, 48 h) stood at 0.254 and the “plate-normalized OD600 growth” value (temperature: 37°C, 24 h) was 0.611.

On to `COc1ccc(NC(=O)COc2ccc([N+](=O)[O-])cc2)cc1`, for which the “plate-normalized OD600 growth” value reads like this: (temperature: 15°C, 48 h) 0.255; (temperature: 37°C, 24 h) 0.636.

In the case of `Clc1ccc(-c2csc(Nc3ccc4c(c3)OCO4)n2)cc1`, the “plate-normalized OD600 growth” value runs as follows: (temperature: 15°C, 48 h) 0.24; (temperature: 37°C, 24 h) 0.61.

`O=C1CC(Cc2ccc(Cl)cc2)C(=O)N1C1CCCCC1` (stereo not given): the “plate-normalized OD600 growth” value runs as follows: (temperature: 15°C, 48 h) 0.267; (temperature: 37°C, 24 h) 0.651.

Regarding `CC(C)NC(=O)c1ccc(C(C)(C)C)cc1`, the “plate-normalized OD600 growth” value is 0.253 (temperature: 15°C, 48 h) and 0.614 (temperature: 37°C, 24 h).

For the compound `Cc1ccc2c(c1)c1c(n2CCN2C(=O)c3ccccc3C2=O)C(=O)CCC1`, the “plate-normalized OD600 growth” value reads like this: (temperature: 15°C, 48 h) 0.239; (temperature: 37°C, 24 h) 0.596.

Turning to `CCOc1ccc(Nc2nc(-c3ccc(CC(C)C)cc3)cs2)cc1`, the “plate-normalized OD600 growth” value was determined as 0.223 (temperature: 15°C, 48 h) and 0.624 (temperature: 37°C, 24 h).

`O=c1[nH]c(/C=C/c2ccc(Br)cc2)nc(O)c1[N+](=O)[O-]`: the “plate-normalized OD600 growth” value by setting is: (temperature: 15°C, 48 h) 0.261; (temperature: 37°C, 24 h) 0.626.

As to `Nc1ccc(Br)cc1-c1nc2ccccc2[nH]c1=O`, the “plate-normalized OD600 growth” value runs as follows: (temperature: 15°C, 48 h) 0.254; (temperature: 37°C, 24 h) 0.608.

As for `CC(=O)C(=C(C)O)c1nc2ccccc2[nH]1`, the “plate-normalized OD600 growth” value by setting is: (temperature: 15°C, 48 h) 0.253; (temperature: 37°C, 24 h) 0.599.

Consider `Cc1cc(C)c(S(=O)(=O)Nc2ccccc2F)c(C)c1`, for which the “plate-normalized OD600 growth” value by setting is: (temperature: 15°C, 48 h) 0.248; (temperature: 37°C, 24 h) 0.632.

Take `O=C1CCC(=O)N1CCc1c[nH]c2ccc(OCc3ccccc3)cc12`: the “plate-normalized OD600 growth” value (temperature: 15°C, 48 h) is 0.242 and the “plate-normalized OD600 growth” value (temperature: 37°C, 24 h) is 0.613.

Turning to `COc1cccc(NC(=O)c2cc(OC)cc(OC)c2)c1`, the “plate-normalized OD600 growth” value is 0.246 (temperature: 15°C, 48 h) and 0.644 (temperature: 37°C, 24 h).

For the compound `CN(CCCc1ccccc1)CCc1ccccn1`, the “plate-normalized OD600 growth” value runs as follows: (temperature: 15°C, 48 h) 0.26; (temperature: 37°C, 24 h) 0.659.

In the case of `Cc1nc2ccccc2c(C(=O)O)c1-c1ccccc1`, the “plate-normalized OD600 growth” value reads like this: (temperature: 15°C, 48 h) 0.248; (temperature: 37°C, 24 h) 0.612.

Regarding `CCC(CO)NC1=C([N+](=O)[O-])C(=O)CC(C)(C)C1` (stereo not given), the “plate-normalized OD600 growth” value reads like this: (temperature: 15°C, 48 h) 0.282; (temperature: 37°C, 24 h) 0.666.

For `Cc1nc([N+](=O)[O-])c(NCCO)n1Cc1ccccc1`, the “plate-normalized OD600 growth” value is, setting by setting: (temperature: 15°C, 48 h) 0.253; (temperature: 37°C, 24 h) 0.617.

As to `OCCN(Cc1ccccc1)CC1CC2C=CC1C2` (stereo not given), the “plate-normalized OD600 growth” value is 0.238 (temperature: 15°C, 48 h) and 0.601 (temperature: 37°C, 24 h).

For the compound `COc1ccc(OC)c(/C=C(\C#N)c2ccc(Cl)cc2)c1`, the “plate-normalized OD600 growth” value runs as follows: (temperature: 15°C, 48 h) 0.237; (temperature: 37°C, 24 h) 0.602.

As for `CCOC(=O)N1CCC(NC2C3CC4CC(C3)CC2C4)CC1` (stereo not given), the “plate-normalized OD600 growth” value was found to be 0.276 (temperature: 15°C, 48 h) and 0.628 (temperature: 37°C, 24 h).

As for `O=[N+]([O-])c1ccc(N2CCN(Cc3cccs3)CC2)cc1`, the “plate-normalized OD600 growth” value (temperature: 15°C, 48 h) turned out to be 0.22 and the “plate-normalized OD600 growth” value (temperature: 37°C, 24 h) was 0.599.

`CCN(CC)CCN(C)C/C=C/c1ccccc1`: the “plate-normalized OD600 growth” value (temperature: 15°C, 48 h) came to 0.208 and the “plate-normalized OD600 growth” value (temperature: 37°C, 24 h) amounted to 0.608.

For the compound `CC1CC2(C)Oc3ccccc3C3OCC1(CO)C(C)C32` (stereo not given), the “plate-normalized OD600 growth” value reads like this: (temperature: 15°C, 48 h) 0.29; (temperature: 37°C, 24 h) 0.635.

`O=C(O)C1CCCCC1C(=O)N1CCCC1` (stereo not given): the “plate-normalized OD600 growth” value runs as follows: (temperature: 15°C, 48 h) 0.268; (temperature: 37°C, 24 h) 0.664.

Consider `Cc1nc2nc(-c3cccs3)[nH]c2cc1Br`, for which the “plate-normalized OD600 growth” value by setting is: (temperature: 15°C, 48 h) 0.253; (temperature: 37°C, 24 h) 0.585.

On to `N#CC1=C(N)OC2=C(C(=O)CCC2)C1c1cccnc1` (stereo not given), for which the “plate-normalized OD600 growth” value is, setting by setting: (temperature: 15°C, 48 h) 0.238; (temperature: 37°C, 24 h) 0.629.

For `COc1ccc(-c2ccc(/C=C/C(=O)c3ccco3)o2)cc1`, the “plate-normalized OD600 growth” value (temperature: 15°C, 48 h) was found to be 0.243 and the “plate-normalized OD600 growth” value (temperature: 37°C, 24 h) stood at 0.614.

As for `CN1CCN(C(=O)CC23CC4CC(CC(C4)C2)C3)CC1`, the “plate-normalized OD600 growth” value was 0.244 (temperature: 15°C, 48 h) and 0.636 (temperature: 37°C, 24 h).

For the compound `O=C(CSc1ccccc1)c1c[nH]c2ccccc12`, the “plate-normalized OD600 growth” value turned out to be 0.228 (temperature: 15°C, 48 h) and 0.592 (temperature: 37°C, 24 h).

For `O=C(N/C(=C\c1ccco1)C(=O)N1CCCC1)c1cccs1`, the “plate-normalized OD600 growth” value turned out to be 0.255 (temperature: 15°C, 48 h) and 0.612 (temperature: 37°C, 24 h).
